According to the supplement of paper PMC10849652:
The other results are listed elsewhere or left out.

Sequences of proteins named here, by UniProt entry; tags and fusion partners are left off. A change or cut given only in a name is not applied to a line headed by its entry.
UniProt Q8N2F6: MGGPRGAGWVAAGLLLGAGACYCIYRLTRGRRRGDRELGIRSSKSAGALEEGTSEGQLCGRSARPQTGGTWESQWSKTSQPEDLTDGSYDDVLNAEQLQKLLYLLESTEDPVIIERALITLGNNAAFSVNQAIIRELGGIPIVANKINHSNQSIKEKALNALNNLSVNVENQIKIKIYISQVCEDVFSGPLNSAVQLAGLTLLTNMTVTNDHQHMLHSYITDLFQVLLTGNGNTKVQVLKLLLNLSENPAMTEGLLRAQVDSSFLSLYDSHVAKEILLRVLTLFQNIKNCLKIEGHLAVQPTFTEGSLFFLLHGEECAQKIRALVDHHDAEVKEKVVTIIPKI
UniProt O75787, whole entry, looked up: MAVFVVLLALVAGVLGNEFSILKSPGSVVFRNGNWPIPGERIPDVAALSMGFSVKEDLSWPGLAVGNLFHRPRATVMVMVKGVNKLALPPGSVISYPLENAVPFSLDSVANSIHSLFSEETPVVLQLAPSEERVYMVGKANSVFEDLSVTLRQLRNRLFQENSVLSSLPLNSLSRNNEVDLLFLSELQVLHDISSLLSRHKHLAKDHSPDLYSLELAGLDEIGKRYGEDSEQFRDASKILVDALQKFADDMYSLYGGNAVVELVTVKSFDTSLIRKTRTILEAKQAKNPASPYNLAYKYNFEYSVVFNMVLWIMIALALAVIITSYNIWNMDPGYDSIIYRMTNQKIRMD
UniProt Q13510, whole entry, looked up: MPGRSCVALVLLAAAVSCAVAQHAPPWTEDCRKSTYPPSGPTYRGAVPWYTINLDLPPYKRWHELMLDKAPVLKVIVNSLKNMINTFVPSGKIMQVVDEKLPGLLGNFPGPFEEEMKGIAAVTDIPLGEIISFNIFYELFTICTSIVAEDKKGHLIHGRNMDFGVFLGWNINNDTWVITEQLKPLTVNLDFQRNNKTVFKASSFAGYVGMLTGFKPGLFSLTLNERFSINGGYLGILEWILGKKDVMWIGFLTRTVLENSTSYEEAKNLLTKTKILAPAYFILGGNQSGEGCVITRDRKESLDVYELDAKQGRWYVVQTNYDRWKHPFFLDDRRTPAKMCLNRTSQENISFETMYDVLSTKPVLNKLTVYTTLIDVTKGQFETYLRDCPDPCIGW
UniProt Q8N9N2: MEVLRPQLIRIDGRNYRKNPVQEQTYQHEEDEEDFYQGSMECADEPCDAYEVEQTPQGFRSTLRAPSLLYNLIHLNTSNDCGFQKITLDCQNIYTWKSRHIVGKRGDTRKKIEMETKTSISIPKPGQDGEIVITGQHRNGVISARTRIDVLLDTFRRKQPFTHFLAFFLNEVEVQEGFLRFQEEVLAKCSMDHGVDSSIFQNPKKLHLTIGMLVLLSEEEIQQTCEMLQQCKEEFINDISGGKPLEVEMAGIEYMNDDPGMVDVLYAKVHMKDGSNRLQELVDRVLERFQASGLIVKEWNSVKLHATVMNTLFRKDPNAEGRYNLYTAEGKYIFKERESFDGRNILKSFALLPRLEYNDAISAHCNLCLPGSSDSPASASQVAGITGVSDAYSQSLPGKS
UniProt Q9Y4P1: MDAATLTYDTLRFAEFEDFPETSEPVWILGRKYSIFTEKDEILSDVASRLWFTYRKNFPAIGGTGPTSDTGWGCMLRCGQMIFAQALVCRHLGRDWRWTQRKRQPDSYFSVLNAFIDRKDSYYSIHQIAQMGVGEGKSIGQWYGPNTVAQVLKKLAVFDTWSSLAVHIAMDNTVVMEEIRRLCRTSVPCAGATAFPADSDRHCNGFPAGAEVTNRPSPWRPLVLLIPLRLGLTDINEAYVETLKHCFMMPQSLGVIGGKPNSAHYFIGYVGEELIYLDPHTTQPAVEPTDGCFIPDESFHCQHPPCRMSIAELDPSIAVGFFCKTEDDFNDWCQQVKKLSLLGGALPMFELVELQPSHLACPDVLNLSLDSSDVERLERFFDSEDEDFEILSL
UniProt Q96BY7: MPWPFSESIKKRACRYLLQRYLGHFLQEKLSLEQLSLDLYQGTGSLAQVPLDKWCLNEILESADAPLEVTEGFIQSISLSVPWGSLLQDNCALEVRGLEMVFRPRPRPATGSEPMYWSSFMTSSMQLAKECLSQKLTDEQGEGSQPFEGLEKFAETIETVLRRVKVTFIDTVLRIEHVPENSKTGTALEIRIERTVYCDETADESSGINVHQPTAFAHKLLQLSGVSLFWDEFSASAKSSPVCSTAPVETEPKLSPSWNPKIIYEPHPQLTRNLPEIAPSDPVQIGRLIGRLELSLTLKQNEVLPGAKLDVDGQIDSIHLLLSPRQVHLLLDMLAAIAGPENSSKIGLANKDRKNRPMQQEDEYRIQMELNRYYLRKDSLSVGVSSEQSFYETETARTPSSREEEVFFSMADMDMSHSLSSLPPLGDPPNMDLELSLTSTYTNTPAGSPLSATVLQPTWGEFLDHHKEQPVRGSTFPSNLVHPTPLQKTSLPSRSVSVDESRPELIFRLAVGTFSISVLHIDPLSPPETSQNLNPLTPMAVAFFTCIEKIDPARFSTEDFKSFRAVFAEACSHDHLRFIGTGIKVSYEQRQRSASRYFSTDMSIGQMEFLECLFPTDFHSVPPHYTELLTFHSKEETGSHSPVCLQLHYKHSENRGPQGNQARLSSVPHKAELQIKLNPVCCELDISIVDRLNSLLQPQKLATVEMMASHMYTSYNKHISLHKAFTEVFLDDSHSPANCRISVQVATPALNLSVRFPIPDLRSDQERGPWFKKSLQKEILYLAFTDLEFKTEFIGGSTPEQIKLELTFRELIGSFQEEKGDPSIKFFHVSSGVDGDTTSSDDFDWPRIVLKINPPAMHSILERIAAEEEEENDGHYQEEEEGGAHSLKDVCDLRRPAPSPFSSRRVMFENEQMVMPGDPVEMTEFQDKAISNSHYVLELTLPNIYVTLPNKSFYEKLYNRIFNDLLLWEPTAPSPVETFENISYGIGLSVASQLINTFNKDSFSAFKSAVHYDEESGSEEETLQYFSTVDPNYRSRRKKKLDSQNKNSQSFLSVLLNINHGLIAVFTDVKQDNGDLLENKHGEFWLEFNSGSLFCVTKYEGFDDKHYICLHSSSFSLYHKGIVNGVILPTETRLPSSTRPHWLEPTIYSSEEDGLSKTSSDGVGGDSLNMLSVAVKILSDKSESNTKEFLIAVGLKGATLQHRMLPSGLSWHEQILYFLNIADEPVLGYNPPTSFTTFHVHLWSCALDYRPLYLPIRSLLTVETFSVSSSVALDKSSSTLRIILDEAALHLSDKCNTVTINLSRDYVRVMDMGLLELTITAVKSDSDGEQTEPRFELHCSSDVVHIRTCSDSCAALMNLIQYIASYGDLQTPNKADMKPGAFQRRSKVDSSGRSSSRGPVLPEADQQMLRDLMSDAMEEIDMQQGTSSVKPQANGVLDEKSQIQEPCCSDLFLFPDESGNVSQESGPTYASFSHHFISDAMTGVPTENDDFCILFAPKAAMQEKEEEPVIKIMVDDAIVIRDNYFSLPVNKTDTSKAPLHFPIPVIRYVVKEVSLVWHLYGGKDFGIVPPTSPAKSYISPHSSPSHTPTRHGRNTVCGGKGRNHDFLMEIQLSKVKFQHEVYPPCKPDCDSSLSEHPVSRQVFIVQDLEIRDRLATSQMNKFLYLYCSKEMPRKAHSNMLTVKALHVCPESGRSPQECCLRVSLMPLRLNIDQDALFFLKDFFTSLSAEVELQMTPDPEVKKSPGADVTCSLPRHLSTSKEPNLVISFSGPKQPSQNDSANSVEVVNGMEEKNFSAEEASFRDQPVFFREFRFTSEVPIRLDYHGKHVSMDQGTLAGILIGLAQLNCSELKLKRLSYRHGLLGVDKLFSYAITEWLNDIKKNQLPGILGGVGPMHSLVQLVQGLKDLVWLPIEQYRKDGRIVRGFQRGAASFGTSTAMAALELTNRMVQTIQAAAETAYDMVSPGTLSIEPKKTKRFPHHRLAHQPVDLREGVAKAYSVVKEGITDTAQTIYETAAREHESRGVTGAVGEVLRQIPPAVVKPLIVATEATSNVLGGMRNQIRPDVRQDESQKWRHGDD
UniProt P54259: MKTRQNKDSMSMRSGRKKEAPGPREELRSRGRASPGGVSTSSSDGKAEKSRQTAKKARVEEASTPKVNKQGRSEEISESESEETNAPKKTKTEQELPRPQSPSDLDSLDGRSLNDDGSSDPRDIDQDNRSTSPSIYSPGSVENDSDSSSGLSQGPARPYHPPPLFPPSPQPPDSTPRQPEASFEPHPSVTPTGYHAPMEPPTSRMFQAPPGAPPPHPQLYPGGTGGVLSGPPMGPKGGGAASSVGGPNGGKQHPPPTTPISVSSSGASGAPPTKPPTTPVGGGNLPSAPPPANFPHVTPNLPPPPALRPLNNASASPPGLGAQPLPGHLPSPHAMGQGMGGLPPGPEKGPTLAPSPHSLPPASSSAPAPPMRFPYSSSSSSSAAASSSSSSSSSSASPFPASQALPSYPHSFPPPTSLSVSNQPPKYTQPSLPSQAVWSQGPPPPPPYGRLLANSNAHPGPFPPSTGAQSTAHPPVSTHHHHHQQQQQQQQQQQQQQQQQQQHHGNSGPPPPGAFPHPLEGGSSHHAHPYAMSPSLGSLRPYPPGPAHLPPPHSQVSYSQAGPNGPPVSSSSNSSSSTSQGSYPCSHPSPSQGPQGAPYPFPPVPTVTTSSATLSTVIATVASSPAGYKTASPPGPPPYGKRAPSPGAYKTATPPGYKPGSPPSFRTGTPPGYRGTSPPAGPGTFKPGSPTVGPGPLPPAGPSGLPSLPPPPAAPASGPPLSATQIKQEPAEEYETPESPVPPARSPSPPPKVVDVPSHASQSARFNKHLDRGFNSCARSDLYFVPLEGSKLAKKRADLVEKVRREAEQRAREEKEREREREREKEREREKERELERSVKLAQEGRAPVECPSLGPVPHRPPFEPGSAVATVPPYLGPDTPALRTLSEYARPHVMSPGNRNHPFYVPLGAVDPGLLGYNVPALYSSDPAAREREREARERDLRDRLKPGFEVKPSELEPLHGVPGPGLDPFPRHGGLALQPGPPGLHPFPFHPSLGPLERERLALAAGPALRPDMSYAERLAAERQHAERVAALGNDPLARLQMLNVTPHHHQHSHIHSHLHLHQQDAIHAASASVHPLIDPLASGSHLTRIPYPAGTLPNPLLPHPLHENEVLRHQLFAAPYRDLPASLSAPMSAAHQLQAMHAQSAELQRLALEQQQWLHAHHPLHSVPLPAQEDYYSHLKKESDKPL
UniProt Q06055: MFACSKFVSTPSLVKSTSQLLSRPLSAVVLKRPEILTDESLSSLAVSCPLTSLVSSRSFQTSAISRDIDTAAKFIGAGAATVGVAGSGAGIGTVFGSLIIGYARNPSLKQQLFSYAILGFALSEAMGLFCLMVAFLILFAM
UniProt P16615: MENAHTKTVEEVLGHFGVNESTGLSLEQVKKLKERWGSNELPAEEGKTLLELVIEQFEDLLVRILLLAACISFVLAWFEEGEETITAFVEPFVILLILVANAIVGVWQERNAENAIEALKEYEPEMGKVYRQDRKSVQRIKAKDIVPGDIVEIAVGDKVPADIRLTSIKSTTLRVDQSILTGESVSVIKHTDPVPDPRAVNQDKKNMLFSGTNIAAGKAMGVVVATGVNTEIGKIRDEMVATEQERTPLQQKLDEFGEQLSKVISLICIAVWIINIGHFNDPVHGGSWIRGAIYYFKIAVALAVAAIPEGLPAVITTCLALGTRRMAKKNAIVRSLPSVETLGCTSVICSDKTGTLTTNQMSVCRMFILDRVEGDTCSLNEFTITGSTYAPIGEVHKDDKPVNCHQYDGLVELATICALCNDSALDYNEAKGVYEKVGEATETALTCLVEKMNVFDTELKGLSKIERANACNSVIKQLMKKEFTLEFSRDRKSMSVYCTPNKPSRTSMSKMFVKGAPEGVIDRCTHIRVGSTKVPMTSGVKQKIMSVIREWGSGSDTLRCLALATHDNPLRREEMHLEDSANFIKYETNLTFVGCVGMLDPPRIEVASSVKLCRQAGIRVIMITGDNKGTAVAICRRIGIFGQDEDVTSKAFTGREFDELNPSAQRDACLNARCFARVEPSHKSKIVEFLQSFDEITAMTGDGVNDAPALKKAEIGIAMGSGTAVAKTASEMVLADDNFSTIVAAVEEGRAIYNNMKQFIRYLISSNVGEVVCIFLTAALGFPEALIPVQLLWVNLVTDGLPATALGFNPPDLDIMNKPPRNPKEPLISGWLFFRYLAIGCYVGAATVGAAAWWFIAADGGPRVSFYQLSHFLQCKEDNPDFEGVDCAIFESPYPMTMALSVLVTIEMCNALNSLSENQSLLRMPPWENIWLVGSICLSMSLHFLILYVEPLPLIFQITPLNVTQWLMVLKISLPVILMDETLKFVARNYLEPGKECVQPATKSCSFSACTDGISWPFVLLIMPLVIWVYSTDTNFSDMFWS
UniProt P48047: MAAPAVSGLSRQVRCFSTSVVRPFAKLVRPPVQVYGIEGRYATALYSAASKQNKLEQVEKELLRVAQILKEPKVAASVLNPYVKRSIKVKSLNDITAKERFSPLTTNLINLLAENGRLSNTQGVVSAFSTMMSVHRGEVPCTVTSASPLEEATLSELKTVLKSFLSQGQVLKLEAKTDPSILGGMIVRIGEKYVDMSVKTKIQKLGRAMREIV

How the values were obtained:
Test in all cases: log2 fold change, soluble protein after heating vs DMSO (PISA); higher = thermal stabilisation; K562 cells, 10 uM, 30 min; active = over 0.2 and 3.5 SD of the protein, either way, in both replicates (recomputed)
[1] = compound: NC(=O)Nc1cc(-c2cccc(F)c2)sc1C(=O)N[C@H]1CCCNC1
How it was run: (§1)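 K562 cells (2×10^6 cells/mL) were treated with 10 μM compound for 30 min, and aliquots were heated for 3 min over 48°C-58°C. Pooled aliquots were extracted in PBS with 0.5% NP-40 at 4°C, and the supernatant after 21,000xg for 90 min was measured by TMTpro 16plex LC-MS/MS with channel sums equalised. Reported thermal stability, relative to control samples and from duplicates, is a log2 fold change.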

[2] = compound: NC(=O)c1cnc(N[C@@H]2CCCC[C@@H]2N)nc1Nc1cccc(-n2nccn2)c1
How it was run: as §1

[3] = compound: NC1(c2ccc(-c3nc4ccn5c(=O)[nH]nc5c4cc3-c3ccccc3)cc2)CCC1
How it was run: as §1

[4] = compound: NCC(=O)Nc1ccc(-n2nc(C(F)(F)F)cc2-c2ccc3c(ccc4ccccc43)c2)cc1
How it was run: as §1

entinostat = compound: Nc1ccccc1NC(=O)c1ccc(CNC(=O)OCc2cccnc2)cc1 [entinostat]
How it was run: as §1

vorinostat = compound: O=C(CCCCCCC(=O)Nc1ccccc1)NO [vorinostat]
How it was run: as §1

citarinostat = compound: O=C(CCCCCCNC(=O)c1cnc(N(c2ccccc2)c2ccccc2Cl)nc1)NO [citarinostat]
How it was run: as §1

silmitasertib = compound: O=C(O)c1ccc2c(c1)nc(Nc1cccc(Cl)c1)c1ccncc12 [silmitasertib]
How it was run: as §1

[5] = compound: O=C1NC(=O)C(c2cnc3ccccn23)=C1c1cn2c3c(cc(F)cc13)CN(C(=O)N1CCCCC1)CC2
How it was run: as §1

[6] = compound: c1cc(OCCN2CCCCC2)cc(-c2n[nH]c3ccc(-c4nnc[nH]4)cc23)c1
How it was run: as §1

Measured: log2 fold change

ARMC10 (UniProt Q8N2F6)
inactive: [1] -0.039 | [2] 0.003 | [3] 0.005 | [4] 0.028 | entinostat 0.005 | vorinostat 0.056 | citarinostat 0.096 | silmitasertib 0.054 | [5] -0.039 | [6] -0.062

ARMT1 (UniProt Q9H993)
inactive: [1] -0.134 | [2] -0.114 | [3] -0.187 | [4] -0.077 | entinostat 0.188 | vorinostat 0.139 | citarinostat 0.118 | silmitasertib 0.085 | [5] 0.121 | [6] -0.094

ATP6AP2 (UniProt O75787)
inactive: [1] -0.017 | [2] -0.007 | [3] -0.084 | [4] 0.009 | entinostat 0.023 | vorinostat -0.017 | citarinostat 0.009 | silmitasertib 0.047 | [5] 0.043 | [6] -0.05

ATP5MD (UniProt Q96IX5)
inactive: [1] -0.004 | [2] -0.044 | [3] 0.151 | [4] 0.075 | entinostat 0.03 | vorinostat -0.188 | citarinostat 0.061 | silmitasertib -0.081 | [5] -0.074 | [6] -0.073

ATP5PD (UniProt O75947)
inactive: [1] -0.044 | [2] 0.03 | [3] 0.043 | [4] 0.01 | entinostat 0.006 | vorinostat -0.028 | citarinostat 0.038 | silmitasertib -0.039 | [5] -0.061 | [6] 0

ATP1B3 (UniProt P54709)
inactive: [1] -0.065 | [2] -0.011 | [3] 0.066 | [4] 0.004 | entinostat -0.041 | vorinostat -0.007 | citarinostat 0.037 | silmitasertib 0.002 | [5] -0.057 | [6] -0.088

ASAH1 isoform 2 (UniProt Q13510)
inactive: [1] 0.023 | [2] -0.008 | [3] -0.153 | [4] -0.07 | entinostat 0.019 | vorinostat 0.046 | citarinostat 0.01 | silmitasertib 0.01 | [5] -0.032 | [6] 0.079

ASCC1 isoform 2 (UniProt Q8N9N2)
inactive: [1] -0.01 | [2] -0.066 | [3] -0.145 | [4] -0.026 | entinostat 0.035 | vorinostat 0.045 | citarinostat 0.009 | silmitasertib 0.017 | [5] 0.009 | [6] -0.133

ATG4B isoform 2 (UniProt Q9Y4P1)
inactive: [1] 0.08 | [2] -0.104 | [3] -0.401 | [4] -0.151 | entinostat 0.154 | vorinostat 0.268 | citarinostat 0.005 | silmitasertib 0.003 | [5] -0.093 | [6] -0.023

ATG2B (UniProt Q96BY7)
inactive: [1] 0.01 | [2] -0.04 | [3] -0.075 | [4] -0.012 | entinostat -0.03 | vorinostat -0.046 | citarinostat 0.035 | silmitasertib 0.037 | [5] -0.014 | [6] 0.021

ATP5MPL (UniProt P56378)
inactive: [1] -0.015 | [2] -0.113 | [3] 0.039 | [4] -0.016 | entinostat -0.004 | vorinostat -0.105 | citarinostat 0.026 | silmitasertib -0.001 | [5] -0.016 | [6] -0.025

ATN1 (UniProt P54259)
inactive: [1] 0.047 | [2] -0.056 | [3] -0.032 | [4] 0.015 | entinostat -0.054 | vorinostat 0.014 | citarinostat 0.032 | silmitasertib 0.021 | [5] 0.008 | [6] 0.023

ATP6AP1 (UniProt Q15904)
inactive: [1] -0.033 | [2] -0.208 | [3] -0.149 | [4] -0.04 | entinostat 0.025 | vorinostat 0.063 | citarinostat 0.035 | silmitasertib 0.043 | [5] -0.005 | [6] -0.087

ATP5ME (UniProt P56385)
inactive: [1] 0.003 | [2] -0.007 | [3] 0.057 | [4] -0.04 | entinostat 0.026 | vorinostat -0.027 | citarinostat -0.007 | silmitasertib -0.008 | [5] -0.037 | [6] -0.039

ASB6 (UniProt Q9NWX5)
inactive: [1] 0.076 | [2] 0.161 | [3] -0.216 | [4] -0.032 | entinostat -0.12 | vorinostat -0.075 | citarinostat 0.106 | silmitasertib -0.006 | [5] 0.059 | [6] 0.07

ARMC6 (UniProt Q6NXE6)
inactive: [1] 0.091 | [2] -0.008 | [3] 0.058 | [4] 0.122 | entinostat 0.042 | vorinostat 0.034 | citarinostat 0.02 | silmitasertib 0.132 | [5] 0.234 | [6] -0.035

ARMC8 (UniProt Q8IUR7)
inactive: [1] -0.044 | [2] 0.017 | [3] -0.087 | [4] 0.002 | entinostat -0.031 | vorinostat -0.031 | citarinostat 0.057 | silmitasertib 0.058 | [5] 0.026 | [6] -0.028

ATP6V0A2 (UniProt Q9Y487)
inactive: [1] -0.002 | [2] -0.072 | [3] -0.143 | [4] -0.024 | entinostat 0.021 | vorinostat 0 | citarinostat 0.036 | silmitasertib 0.079 | [5] 0.061 | [6] -0.043

Quoted at random: two records from the list.
ATP5ME (UniProt P56385)
inactive: [1] 0.003 | [2] -0.007 | [3] 0.057 | [4] -0.04 | entinostat 0.026 | vorinostat -0.027 | citarinostat -0.007 | silmitasertib -0.008 | [5] -0.037 | [6] -0.039

ASB6 (UniProt Q9NWX5)
inactive: [1] 0.076 | [2] 0.161 | [3] -0.216 | [4] -0.032 | entinostat -0.12 | vorinostat -0.075 | citarinostat 0.106 | silmitasertib -0.006 | [5] 0.059 | [6] 0.07

Next results:

ATP5MC2 isoform 2 (UniProt Q06055)
inactive: [1] 0.049 | [2] -0.016 | [3] -0.029 | [4] 0.058 | entinostat -0.137 | vorinostat 0.051 | citarinostat 0.021 | silmitasertib -0.021 | [5] -0.069 | [6] -0.109

ATP2A2 (UniProt P16615)
inactive: [1] -0.017 | [2] -0.09 | [3] -0.069 | [4] -0.072 | entinostat 0.001 | vorinostat 0.001 | citarinostat 0.038 | silmitasertib 0.024 | [5] -0.017 | [6] -0.039

ATL3 (UniProt Q6DD88)
inactive: [1] -0.004 | [2] -0.019 | [3] -0.121 | [4] -0.012 | entinostat 0.02 | vorinostat 0.062 | citarinostat 0.041 | silmitasertib -0.011 | [5] -0.033 | [6] -0.03

ATG2A isoform 3 (UniProt Q2TAZ0)
inactive: [1] -0.056 | [2] -0.028 | [3] -0.081 | [4] -0.016 | entinostat -0.021 | vorinostat 0.02 | citarinostat 0.016 | silmitasertib 0.011 | [5] 0 | [6] 0.029

ATP5F1D (UniProt P30049)
inactive: [1] 0.033 | [2] -0.09 | [3] -0.018 | [4] 0.025 | entinostat 0.014 | vorinostat -0.034 | citarinostat 0.049 | silmitasertib -0.019 | [5] -0.034 | [6] -0.01

ARSB (UniProt P15848)
inactive: [1] 0.038 | [2] 0.034 | [3] -0.087 | [4] -0.004 | entinostat -0.041 | vorinostat -0.008 | citarinostat 0.081 | silmitasertib -0.008 | [5] -0.005 | [6] -0.005

ASNS (UniProt P08243)
inactive: [1] -0.033 | [2] -0.018 | [3] -0.019 | [4] 0.008 | entinostat -0.007 | vorinostat 0.018 | citarinostat 0.013 | silmitasertib -0.044 | [5] -0.021 | [6] -0.026

ASRGL1 (UniProt Q7L266)
inactive: [1] 0.061 | [2] -0.031 | [3] 0.008 | [4] -0.003 | entinostat -0.048 | vorinostat 0.01 | citarinostat 0.074 | silmitasertib 0 | [5] 0.008 | [6] -0.039

ATP1A4 (UniProt Q13733)
inactive: [1] 0.023 | [2] 0.069 | [3] 0.059 | [4] -0.03 | entinostat -0.001 | vorinostat -0.002 | citarinostat 0.121 | silmitasertib 0.007 | [5] 0.176 | [6] -0.088

ATP5IF1 (UniProt Q9UII2)
inactive: [1] -0.039 | [2] -0.01 | [3] -0.02 | [4] 0.086 | entinostat -0.021 | vorinostat -0.07 | citarinostat -0.124 | silmitasertib -0.044 | [5] -0.092 | [6] 0.092

ATP5PO (UniProt P48047)
inactive: [1] 0.012 | [2] 0.023 | [3] 0.016 | [4] 0.069 | entinostat -0.008 | vorinostat -0.039 | citarinostat -0.005 | silmitasertib -0.043 | [5] 0.001 | [6] 0.015

ATPAF1 (UniProt Q5TC12)
inactive: [1] 0.081 | [2] -0.007 | [3] -0.082 | [4] 0.016 | entinostat 0.028 | vorinostat -0.032 | citarinostat 0.027 | silmitasertib 0.019 | [5] -0.018 | [6] -0.066
